For one substance, binding results are on record in publication PMC7563795.

By UniProt entry, the sequences of proteins in these tests, tags left out.
UniProt A0A8V0X930: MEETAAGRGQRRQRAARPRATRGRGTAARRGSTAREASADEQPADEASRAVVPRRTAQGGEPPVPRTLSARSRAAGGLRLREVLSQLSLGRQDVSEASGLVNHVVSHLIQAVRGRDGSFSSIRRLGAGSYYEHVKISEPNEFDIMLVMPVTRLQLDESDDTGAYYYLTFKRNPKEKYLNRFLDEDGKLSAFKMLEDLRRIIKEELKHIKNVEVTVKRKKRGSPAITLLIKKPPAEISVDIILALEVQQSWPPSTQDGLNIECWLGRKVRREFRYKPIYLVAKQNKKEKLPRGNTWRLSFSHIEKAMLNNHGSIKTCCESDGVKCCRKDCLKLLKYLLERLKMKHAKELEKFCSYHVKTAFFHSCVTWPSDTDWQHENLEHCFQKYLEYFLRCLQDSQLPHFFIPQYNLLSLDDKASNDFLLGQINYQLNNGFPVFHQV

The target of the experiment is T1, chicken STING with C-terminal 3FLAG tag (chSTING-3FLAG) (chicken) (UniProt E1C7U0).
T1 sequence: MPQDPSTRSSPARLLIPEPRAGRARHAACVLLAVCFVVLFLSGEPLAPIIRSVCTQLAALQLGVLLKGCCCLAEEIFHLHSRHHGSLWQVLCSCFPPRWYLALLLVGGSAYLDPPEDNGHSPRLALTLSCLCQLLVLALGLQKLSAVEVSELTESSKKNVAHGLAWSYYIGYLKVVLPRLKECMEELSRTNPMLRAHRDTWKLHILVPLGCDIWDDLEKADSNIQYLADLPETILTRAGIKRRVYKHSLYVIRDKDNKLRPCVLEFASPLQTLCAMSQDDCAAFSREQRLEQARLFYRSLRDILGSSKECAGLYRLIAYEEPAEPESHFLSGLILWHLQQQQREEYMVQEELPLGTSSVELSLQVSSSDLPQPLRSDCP
Put plainly: co-IP; chcGAS-HA and chSTING-FLAG co-transfected into 293T cells (6-well plate); cleared lysates incubated with 1 ug anti-FLAG antibody at 4 °C overnight, then Protein A/G PLUS-Agarose; Western blot with anti-FLAG and anti-HA mAbs.

Results are given in words; binding and its absence hold for the method and conditions named. In cells and extracts the contact can be indirect. Some results given as binding are weak or reduced against the parent protein; the word gives no strength. Sequences can lack the tags named with a protein.

As to “chicken cGAS with C-terminal 2HA tag (chcGAS-2HA) (from UniProt A0A8V0X930 1-438)”, the binding result is listed as “binds”.
